{
  "source": "PubChem BioAssay (EPA / NIEHS)",
  "note": "This list was built around the results that the source calls inconclusive (neither active nor inactive); the mix of calls is not that of the screen. A potency beside an inconclusive call is a rough fit, not a confirmed value. Active and inactive are the calls of the source. Rule for the calls: active = hit-call score of the fitted dose curve at least 0.9, where 1 is the maximum; inconclusive = response in the unintended direction; inactive = score below 0.9.",
  "data": [
    {"experiment": "ACEA_ER_AUC_viability: ACEA Biosciences xCELLigence Real-Time Cell Analysis on Estrogen Receptor Agonism for Viability (AID 2283782);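 note: continuous compound exposure with impedance area under curve over 80 h; hit means loss of impedance signal meaning reduced cell growth or viability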", "in_short": "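T47D cells preconditioned in phenol red-free RPMI with charcoal-stripped FBS, then dosed with 8-point 1:4 series from 100 uM (up to 0.5% DMSO). Impedance monitored up to ~80 h; area-under-curve loss versus DMSO taken as viability.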", "values": [
      {"smiles": "Cc1ccc(S(=O)(=O)NC(=O)NN2CCCCCC2)cc1", "AC50": "inconclusive: 50 µM"},
      {"smiles": "CC(C)CCOC(=O)c1ccccc1", "outcome": "inactive"},
      {"smiles": "C=C(C)C(=O)OCCOC1CC2CC1C1C=CCC21", "note": "(stereo not drawn)", "AC50": "active: 48.6 µM"},
      {"smiles": "Cn1cnc2c1c(=O)[nH]c(=O)n2C", "AC50": "inconclusive: 21 µM"},
      {"smiles": "COCCOCCOC", "AC50": "inconclusive: 3.51 µM"},
      {"smiles": "CCOCCOCCOCCO", "AC50": "inconclusive: 50 µM"},
      {"smiles": "CC(C)(C)C1CCC(O)CC1", "note": "(stereo not drawn)", "outcome": "inactive"},
      {"smiles": "CC(=O)OCCOCCOCCOC(C)=O", "AC50": "inconclusive: 50 µM"},
      {"smiles": "CC(C)(C#N)c1cc(Cn2cncn2)cc(C(C)(C)C#N)c1", "AC50": "inconclusive: 17 µM"},
      {"smiles": "C/C=C/C=C/C(=O)O", "outcome": "inactive"},
      {"smiles": "CCc1nn(C2CCCCC2)c2cc(C3(C#N)CCC(C(=O)O)CC3)ccc12", "note": "(stereo not drawn)", "AC50": "inconclusive: 9.92 µM"},
      {"smiles": "CC(C)CCCCCCOC(=O)c1ccc(C(=O)OCCCCCCC(C)C)c(C(=O)OCCCCCCC(C)C)c1", "AC50": "inconclusive: 91.1 µM"},
      {"smiles": "O=C1OC[C@H](Cc2cccc(O)c2)[C@H]1Cc1cccc(O)c1", "AC50": "inconclusive: 16.8 µM"},
      {"smiles": "CCCCCCCC(=O)N(C)C", "AC50": "inconclusive: 50 µM"},
      {"smiles": "CCCCCC(C)=O", "AC50": "inconclusive: 0.131 µM"},
      {"smiles": "NS(=O)(=O)O", "AC50": "inconclusive: 0.0506 µM"},
      {"smiles": "COc1cc(S(=O)(=O)O)c(C)cc1N=Nc1c(O)ccc2cc(S(=O)(=O)O)ccc12", "AC50": "inconclusive: 50 µM"},
      {"smiles": "Cc1occc(=O)c1O", "AC50": "inconclusive: 24.1 µM"},
      {"smiles": "CC(=O)Nc1cc(S(=O)(=O)O)cc2cc(S(=O)(=O)O)c(N=Nc3ccccc3)c(O)c12", "AC50": "inconclusive: 0.0556 µM"},
      {"smiles": "CCCCC(CC)CO", "note": "(stereo not drawn)", "AC50": "inconclusive: 50 µM"},
      {"smiles": "Cc1cccc(C)c1", "AC50": "inconclusive: 0.0371 µM"},
      {"smiles": "CC(C)=CCC/C(C)=C\\CO", "AC50": "inconclusive: 50 µM"},
      {"smiles": "NNC(=O)c1ccncc1", "AC50": "inconclusive: 22 µM"},
      {"smiles": "C=C(C)C(=O)OCCC(C)OC(=O)C(=C)C", "note": "(stereo not drawn)", "AC50": "inconclusive: 0.0024 µM"},
      {"smiles": "CCNc1nc(N)nc(Cl)n1", "AC50": "inconclusive: 0.0232 µM"},
      {"smiles": "CC(=O)OC(C)c1ccccc1", "note": "(stereo not drawn)", "AC50": "inconclusive: 50 µM"},
      {"smiles": "Cc1nc(C)nc(N2C[C@@H](C)N(c3ccnc([C@@H](C)O)n3)[C@@H](C)C2)n1", "AC50": "inconclusive: 25 µM"},
      {"smiles": "CO[C@H]1/C=C/O[C@@]2(C)Oc3c(C)c(O)c4c(O)c(c(/C=N/N5CCN(C)CC5)c(O)c4c3C2=O)NC(=O)/C(C)=C\\C=C\\[C@H](C)[C@H](O)[C@@H](C)[C@@H](O)[C@@H](C)[C@H](OC(C)=O)[C@@H]1C", "AC50": "inconclusive: 48.5 µM"},
      {"smiles": "NC(N)=O", "AC50": "inconclusive: 50 µM"},
      {"smiles": "CC(=O)C1C(=O)C=C(C)OC1=O", "note": "(stereo not drawn)", "outcome": "inactive"},
      {"smiles": "CCc1cccc(O)c1", "outcome": "inactive"},
      {"smiles": "COc1ccccc1O", "AC50": "inconclusive: 50.5 µM"},
      {"smiles": "CC(=O)OCCC(C)C", "AC50": "inconclusive: 10.8 µM"},
      {"smiles": "CC(=O)c1ccccc1", "AC50": "inconclusive: 50 µM"},
      {"smiles": "Oc1ccccc1", "AC50": "inconclusive: 15 µM"},
      {"smiles": "O=C1O[C@H]([C@H](O)CO)C(O)=C1O", "AC50": "inconclusive: 15.9 µM"},
      {"smiles": "Cc1ccc2ncccc2c1", "AC50": "inconclusive: 50 µM"},
      {"smiles": "CC(C)c1ccc(C(=O)N=C(N)N)cc1S(C)(=O)=O", "AC50": "inconclusive: 37.2 µM"}
    ]}
  ]
}
